This is one part of the list.
Legend:
Test in all cases: log2 fold change, soluble protein after heating vs DMSO (PISA); higher = thermal stabilisation; K562 cells, 10 uM, 30 min; active = over 0.2 and 3.5 SD of the protein, either way, in both replicates (recomputed)
[1] = compound: CC1=C(C=C(C=C1)NC(=O)C2=CC(=CC=C2)N(C)C)NC(=O)C3=CC=C(C=C3)O
How it was run: (§1)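 Aliquots of K562 cells (2×10^6 cells/mL) treated with 10 μM compound for 30 min were heated for 3 min over 48°C-58°C. After pooling and extraction in PBS with 0.5% NP-40 at 4°C, soluble protein from a 21,000xg, 90 min spin was quantified by TMTpro 16plex LC-MS/MS with channel sums equalised. Thermal stability is expressed against control samples, from duplicates, as a log2 fold change.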

By UniProt entry, the sequences of proteins in these tests, tags left out. Where a name states a change or a piece, a line headed by the entry shows the natural chain unless it says otherwise.
UniProt Q9UNK9: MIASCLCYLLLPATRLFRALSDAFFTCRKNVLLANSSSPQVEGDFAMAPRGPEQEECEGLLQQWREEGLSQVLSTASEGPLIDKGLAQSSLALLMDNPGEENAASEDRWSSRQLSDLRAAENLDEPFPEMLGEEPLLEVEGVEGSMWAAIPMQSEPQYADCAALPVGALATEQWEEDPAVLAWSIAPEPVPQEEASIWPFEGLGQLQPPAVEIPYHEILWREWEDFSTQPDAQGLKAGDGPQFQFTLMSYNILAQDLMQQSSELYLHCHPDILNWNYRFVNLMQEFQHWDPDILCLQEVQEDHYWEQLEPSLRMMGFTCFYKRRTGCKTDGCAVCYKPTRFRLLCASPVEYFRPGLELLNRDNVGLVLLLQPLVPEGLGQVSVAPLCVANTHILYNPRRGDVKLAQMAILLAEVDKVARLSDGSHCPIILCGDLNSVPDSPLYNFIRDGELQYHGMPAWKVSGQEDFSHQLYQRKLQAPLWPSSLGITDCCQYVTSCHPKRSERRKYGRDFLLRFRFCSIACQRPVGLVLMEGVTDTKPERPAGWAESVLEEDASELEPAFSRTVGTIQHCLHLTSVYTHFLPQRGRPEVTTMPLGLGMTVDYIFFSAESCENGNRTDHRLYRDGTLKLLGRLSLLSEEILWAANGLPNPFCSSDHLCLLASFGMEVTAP
UniProt P05090: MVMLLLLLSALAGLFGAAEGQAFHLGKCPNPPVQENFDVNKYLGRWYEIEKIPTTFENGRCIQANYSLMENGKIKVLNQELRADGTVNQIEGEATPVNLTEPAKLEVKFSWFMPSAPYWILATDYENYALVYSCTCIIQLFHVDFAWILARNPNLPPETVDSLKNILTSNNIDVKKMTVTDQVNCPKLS
UniProt P53677: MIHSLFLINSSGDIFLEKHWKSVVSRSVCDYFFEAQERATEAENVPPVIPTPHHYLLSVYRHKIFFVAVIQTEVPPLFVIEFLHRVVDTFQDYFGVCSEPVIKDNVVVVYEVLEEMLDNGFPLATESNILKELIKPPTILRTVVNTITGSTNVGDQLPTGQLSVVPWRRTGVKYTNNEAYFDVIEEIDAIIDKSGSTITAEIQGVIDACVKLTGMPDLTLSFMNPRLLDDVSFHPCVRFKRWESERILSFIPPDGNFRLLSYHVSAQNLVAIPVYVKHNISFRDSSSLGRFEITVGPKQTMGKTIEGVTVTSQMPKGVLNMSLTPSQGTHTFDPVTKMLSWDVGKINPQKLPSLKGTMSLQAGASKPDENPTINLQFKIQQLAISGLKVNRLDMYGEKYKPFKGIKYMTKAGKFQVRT
UniProt Q7Z2E3: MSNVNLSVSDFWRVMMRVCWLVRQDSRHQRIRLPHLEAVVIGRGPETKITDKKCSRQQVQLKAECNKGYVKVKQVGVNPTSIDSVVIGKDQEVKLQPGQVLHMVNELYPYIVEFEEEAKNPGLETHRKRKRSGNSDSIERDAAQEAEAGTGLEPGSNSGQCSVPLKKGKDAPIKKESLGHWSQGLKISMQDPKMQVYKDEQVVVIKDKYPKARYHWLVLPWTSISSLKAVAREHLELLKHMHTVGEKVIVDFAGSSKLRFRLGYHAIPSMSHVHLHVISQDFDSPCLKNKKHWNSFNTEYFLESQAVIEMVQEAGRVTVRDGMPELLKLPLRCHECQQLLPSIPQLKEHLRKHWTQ
UniProt Q9Y587: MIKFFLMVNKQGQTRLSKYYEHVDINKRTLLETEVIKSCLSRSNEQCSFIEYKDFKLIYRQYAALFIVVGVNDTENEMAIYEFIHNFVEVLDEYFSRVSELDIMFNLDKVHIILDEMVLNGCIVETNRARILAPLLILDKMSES
UniProt P25054, whole entry, looked up: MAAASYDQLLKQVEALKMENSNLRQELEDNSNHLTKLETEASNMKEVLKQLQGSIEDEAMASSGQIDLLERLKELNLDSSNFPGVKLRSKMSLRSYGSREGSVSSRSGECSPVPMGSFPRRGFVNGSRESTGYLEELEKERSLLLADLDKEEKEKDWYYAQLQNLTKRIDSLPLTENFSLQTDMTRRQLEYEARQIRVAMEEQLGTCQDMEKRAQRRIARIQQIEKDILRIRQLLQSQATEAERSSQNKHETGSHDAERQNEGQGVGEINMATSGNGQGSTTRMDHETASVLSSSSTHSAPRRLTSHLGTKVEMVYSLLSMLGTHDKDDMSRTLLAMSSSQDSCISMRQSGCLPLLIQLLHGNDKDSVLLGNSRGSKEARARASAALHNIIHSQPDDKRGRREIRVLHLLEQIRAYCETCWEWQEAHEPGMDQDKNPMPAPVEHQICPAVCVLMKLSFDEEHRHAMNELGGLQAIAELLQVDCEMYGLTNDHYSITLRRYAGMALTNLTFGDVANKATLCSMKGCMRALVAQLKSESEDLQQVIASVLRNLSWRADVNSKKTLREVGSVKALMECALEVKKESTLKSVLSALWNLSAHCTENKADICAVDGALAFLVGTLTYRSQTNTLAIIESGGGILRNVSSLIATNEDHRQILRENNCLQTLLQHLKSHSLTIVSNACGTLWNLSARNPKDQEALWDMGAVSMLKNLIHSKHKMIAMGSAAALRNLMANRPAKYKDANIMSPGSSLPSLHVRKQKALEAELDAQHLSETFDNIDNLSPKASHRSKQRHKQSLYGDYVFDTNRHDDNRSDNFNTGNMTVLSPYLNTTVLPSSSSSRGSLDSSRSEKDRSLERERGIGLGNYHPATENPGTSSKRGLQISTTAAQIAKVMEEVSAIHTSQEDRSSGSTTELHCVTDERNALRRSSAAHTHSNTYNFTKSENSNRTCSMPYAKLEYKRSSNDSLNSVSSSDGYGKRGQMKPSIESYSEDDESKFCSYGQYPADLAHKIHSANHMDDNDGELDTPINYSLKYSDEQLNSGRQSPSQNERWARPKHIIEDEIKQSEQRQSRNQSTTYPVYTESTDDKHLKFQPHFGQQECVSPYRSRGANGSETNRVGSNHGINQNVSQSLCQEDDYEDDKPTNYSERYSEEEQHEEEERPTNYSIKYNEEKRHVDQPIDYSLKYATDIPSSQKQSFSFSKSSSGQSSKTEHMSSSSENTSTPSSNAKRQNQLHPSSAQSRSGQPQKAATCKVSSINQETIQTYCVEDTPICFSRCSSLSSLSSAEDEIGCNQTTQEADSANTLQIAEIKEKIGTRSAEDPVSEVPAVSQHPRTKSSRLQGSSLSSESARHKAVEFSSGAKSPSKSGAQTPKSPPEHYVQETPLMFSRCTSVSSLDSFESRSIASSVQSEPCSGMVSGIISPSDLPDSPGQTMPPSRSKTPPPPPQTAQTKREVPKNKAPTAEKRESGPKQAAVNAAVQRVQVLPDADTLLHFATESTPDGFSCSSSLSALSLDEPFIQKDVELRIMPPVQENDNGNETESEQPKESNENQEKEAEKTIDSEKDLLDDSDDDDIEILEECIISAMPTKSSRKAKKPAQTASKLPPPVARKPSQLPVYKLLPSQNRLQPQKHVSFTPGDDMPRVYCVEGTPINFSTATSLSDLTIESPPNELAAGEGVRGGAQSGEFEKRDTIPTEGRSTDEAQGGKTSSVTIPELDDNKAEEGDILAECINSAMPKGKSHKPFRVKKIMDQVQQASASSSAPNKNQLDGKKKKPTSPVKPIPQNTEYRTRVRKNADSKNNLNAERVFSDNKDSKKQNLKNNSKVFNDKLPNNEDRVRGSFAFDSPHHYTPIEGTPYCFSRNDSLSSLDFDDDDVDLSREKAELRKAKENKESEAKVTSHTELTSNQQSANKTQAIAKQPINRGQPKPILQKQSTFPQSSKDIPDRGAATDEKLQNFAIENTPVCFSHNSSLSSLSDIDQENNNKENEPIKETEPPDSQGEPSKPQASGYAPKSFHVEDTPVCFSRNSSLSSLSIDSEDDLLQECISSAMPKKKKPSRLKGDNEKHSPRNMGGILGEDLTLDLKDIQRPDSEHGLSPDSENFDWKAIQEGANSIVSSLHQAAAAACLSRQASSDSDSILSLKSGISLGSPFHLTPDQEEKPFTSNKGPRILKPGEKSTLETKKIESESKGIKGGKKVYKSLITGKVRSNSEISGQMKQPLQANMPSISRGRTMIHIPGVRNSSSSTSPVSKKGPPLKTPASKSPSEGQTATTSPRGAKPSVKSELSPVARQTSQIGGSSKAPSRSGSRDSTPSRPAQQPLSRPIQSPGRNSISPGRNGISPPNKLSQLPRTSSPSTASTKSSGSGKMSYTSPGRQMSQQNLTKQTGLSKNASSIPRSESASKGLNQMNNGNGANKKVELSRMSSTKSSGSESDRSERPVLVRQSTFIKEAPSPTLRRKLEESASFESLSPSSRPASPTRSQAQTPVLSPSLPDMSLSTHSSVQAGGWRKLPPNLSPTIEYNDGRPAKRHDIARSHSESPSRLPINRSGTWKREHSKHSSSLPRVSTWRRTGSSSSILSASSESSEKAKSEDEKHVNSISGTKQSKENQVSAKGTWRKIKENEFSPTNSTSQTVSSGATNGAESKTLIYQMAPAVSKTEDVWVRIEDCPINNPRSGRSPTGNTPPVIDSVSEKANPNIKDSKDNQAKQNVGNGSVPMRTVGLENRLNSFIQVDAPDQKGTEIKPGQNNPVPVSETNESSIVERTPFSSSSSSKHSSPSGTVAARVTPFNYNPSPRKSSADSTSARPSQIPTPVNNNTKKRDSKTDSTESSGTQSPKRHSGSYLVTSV
UniProt A6QL64: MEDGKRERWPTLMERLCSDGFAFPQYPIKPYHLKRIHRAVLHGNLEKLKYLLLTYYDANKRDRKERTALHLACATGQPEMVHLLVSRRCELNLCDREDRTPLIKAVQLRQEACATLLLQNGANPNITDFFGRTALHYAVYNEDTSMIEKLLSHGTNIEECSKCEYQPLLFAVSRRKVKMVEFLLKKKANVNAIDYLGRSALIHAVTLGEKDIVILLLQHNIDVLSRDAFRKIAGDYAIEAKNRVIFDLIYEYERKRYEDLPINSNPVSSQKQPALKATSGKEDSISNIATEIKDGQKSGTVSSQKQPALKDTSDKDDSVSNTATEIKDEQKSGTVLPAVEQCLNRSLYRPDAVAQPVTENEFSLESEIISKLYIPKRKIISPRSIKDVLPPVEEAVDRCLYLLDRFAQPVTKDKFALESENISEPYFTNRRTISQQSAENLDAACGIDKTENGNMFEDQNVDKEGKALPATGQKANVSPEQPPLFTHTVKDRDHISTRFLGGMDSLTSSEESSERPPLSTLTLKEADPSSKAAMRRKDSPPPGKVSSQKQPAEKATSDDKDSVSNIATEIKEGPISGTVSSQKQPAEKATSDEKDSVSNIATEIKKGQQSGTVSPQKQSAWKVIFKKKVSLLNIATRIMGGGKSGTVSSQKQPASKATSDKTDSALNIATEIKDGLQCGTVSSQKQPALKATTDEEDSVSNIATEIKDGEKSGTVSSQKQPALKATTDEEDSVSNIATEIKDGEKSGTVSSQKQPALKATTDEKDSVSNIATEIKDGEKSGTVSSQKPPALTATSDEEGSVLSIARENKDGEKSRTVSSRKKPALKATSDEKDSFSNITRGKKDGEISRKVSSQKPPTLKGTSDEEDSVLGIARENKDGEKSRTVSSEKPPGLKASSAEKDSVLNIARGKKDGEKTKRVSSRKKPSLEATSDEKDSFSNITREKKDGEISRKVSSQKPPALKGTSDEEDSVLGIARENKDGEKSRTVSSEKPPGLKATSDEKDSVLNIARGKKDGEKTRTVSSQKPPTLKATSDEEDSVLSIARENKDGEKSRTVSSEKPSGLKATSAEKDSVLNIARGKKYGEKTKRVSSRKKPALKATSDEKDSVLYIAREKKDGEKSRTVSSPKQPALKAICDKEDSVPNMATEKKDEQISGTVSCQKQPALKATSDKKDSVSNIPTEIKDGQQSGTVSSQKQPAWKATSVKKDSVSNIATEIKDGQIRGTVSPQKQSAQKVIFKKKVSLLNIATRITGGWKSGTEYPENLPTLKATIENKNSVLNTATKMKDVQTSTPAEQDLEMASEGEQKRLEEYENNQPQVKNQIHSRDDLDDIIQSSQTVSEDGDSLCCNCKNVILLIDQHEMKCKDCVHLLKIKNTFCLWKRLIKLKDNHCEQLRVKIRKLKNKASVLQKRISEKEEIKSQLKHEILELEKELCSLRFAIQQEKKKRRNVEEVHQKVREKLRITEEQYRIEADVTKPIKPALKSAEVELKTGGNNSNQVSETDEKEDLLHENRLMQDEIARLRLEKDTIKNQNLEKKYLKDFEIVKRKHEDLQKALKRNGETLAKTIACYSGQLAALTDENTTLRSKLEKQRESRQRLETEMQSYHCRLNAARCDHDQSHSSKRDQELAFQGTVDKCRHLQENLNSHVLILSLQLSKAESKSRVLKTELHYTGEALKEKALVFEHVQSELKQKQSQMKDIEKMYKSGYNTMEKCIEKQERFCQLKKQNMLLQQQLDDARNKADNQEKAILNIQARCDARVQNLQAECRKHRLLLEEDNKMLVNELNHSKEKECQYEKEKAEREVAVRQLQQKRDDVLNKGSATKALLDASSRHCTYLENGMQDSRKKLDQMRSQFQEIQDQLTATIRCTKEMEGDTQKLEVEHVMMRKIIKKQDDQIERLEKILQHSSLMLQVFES

[2] = compound: CC1=NC(=CC=C1)C2=C(N=C(N2)C(C)(C)C)C3=CC4=NC=CN=C4C=C3
How it was run: as §1

[3] = compound: CCCS(=O)(=O)Nc1ccc(F)c(C(=O)c2c[nH]c3ncc(-c4ccc(Cl)cc4)cc23)c1F [vemurafenib]
How it was run: as §1

[4] = compound: CCN(CCCOc1ccc2c(Nc3cc(CC(=O)Nc4cccc(F)c4)[nH]n3)ncnc2c1)CCOP(=O)(O)O [barasertib]
How it was run: as §1

[5] = compound: CCCCN(Cc1ccc(C(=O)NO)cc1)C(=O)Nc1ccccc1 [Nexturastat A]
How it was run: as §1

[6] = compound: CC1=CC=C(C=C1)SC2=C3C=C(SC3=CN=C2)C(=O)N
How it was run: as §1

[7] = compound: CCCS(=O)(=O)Nc1ccc(F)c(C(=O)c2c[nH]c3ncc(Cl)cc23)c1F
How it was run: as §1

[8] = compound: CCCc1cc(C)[nH]c(=O)c1CNC(=O)c1cc(-c2ccnc(N3CCN(C)CC3)c2)cc2c1cnn2C(C)C
How it was run: as §1

[9] = compound: CCN(CC)Cc1ccc2cc(COC(=O)Nc3ccc(C(=O)NO)cc3)ccc2c1 [givinostat]
How it was run: as §1

[10] = compound: CC1=C(C=C(C=C1)NC(=O)C2=CC(=CC=C2)C(C)(C)C#N)NC3=CC4=C(C=C3)N=CN(C4=O)C
How it was run: as §1

Measured: log2 fold change

APOBEC3B (UniProt Q9UH17)
inactive: [1] 0.072 | [2] -0.479

ANGEL1 (UniProt Q9UNK9)
active: [2] 0.591
inactive: [1] -0.121 | [3] -0.079 | [4] 0.033

ANKRD13C (UniProt Q8N6S4)
inactive: [5] 0.214 | [3] 0.13

APPBP2 (UniProt Q92624)
inactive: [1] -0.08 | [6] -0.245 | [2] -0.025 | [7] 0.047 | [4] 0.235

ANKRD52 (UniProt Q8NB46)
inactive: [1] -0.075 | [2] 0.133 | [5] 0.041 | [3] 0.215 | [8] 0.093 | [9] 0.061

API5 isoform 1 (UniProt Q9BZZ5)
inactive: [6] 0 | [5] -1.16 | [3] 0.063 | [7] -0.3

APOD (UniProt P05090)
inactive: [10] 0.054 | [6] 0.74 | [3] -0.09 | [7] -0.117 | [8] -0.153 | [9] -0.155

2 neighbouring entries already listed:
APPBP2 (UniProt Q92624)
inactive: [1] -0.08 | [6] -0.245 | [2] -0.025 | [7] 0.047 | [4] 0.235

ANKRD52 (UniProt Q8NB46)
inactive: [1] -0.075 | [2] 0.133 | [5] 0.041 | [3] 0.215 | [8] 0.093 | [9] 0.061

(further entries)

AP4B1 (UniProt Q9Y6B7)
inactive: [10] 0.079 | [2] 0.211 | [3] 0.07 | [9] 0.027 | [4] 0.035

AP2M1 (UniProt C9JTK4)
inactive: [10] -0.04 | [2] -0.033 | [5] 0.009 | [3] -0.262 | [8] -0.172 | [4] -0.079

AP3M2 (UniProt P53677)
inactive: [2] 0.12 | [8] 0.075 | [9] 0.198 | [4] 0.032

ARID1B isoform 3 (UniProt Q8NFD5)
inactive: [1] -0.17 | [4] 0.043

AREG (UniProt P15514)
inactive: [6] -0.057 | [2] 0.1 | [7] -0.083 | [9] 0.088

ARFIP1 isoform 2 (UniProt P53367)
inactive: [10] -0.106 | [6] 0.051 | [2] 0.031 | [5] -0.025 | [7] 0.097 | [8] 0.121 | [9] 0.061 | [4] 0.019

APOBEC3F (UniProt Q8IUX4)
inactive: [1] -0.079 | [6] -0.121 | [2] -0.235 | [5] 0.421 | [7] 0.074 | [4] -0.249

ANKRD27 (UniProt Q96NW4)
inactive: [1] -0.024 | [2] -0.117

ANKH (UniProt Q9HCJ1)
inactive: [1] -0.239 | [6] -0.171 | [2] -0.166 | [7] -0.209 | [9] -0.088

APLF (UniProt Q8IW19)
inactive: [6] 0.097 | [7] -0.153

ARHGAP35 (UniProt Q9NRY4)
inactive: [1] -0.09 | [6] -0.233 | [2] 0.08 | [5] 0.206 | [3] -0.001 | [7] 0.056 | [8] 0.104 | [9] 0.065

AP1G2 (UniProt O75843)
inactive: [1] 0.082 | [6] -0.164 | [7] 0.212 | [9] 0.065

ANXA2 (UniProt H0YMT9)
inactive: [2] 0.041 | [5] 0.179 | [4] -0.242

APBA2 (UniProt Q99767)
inactive: [5] 0.013

APTX (UniProt Q7Z2E3)
inactive: [10] 0.269 | [2] -0.157 | [5] 0.214 | [9] 0.074

ANKRD16 (UniProt Q6P6B7)
inactive: [10] -0.001 | [6] 0.085 | [5] 0.256 | [3] 0.051 | [7] -0.173 | [8] -0.051 | [9] 0.129 | [4] -0.173

AP1B1 isoform 3 (UniProt Q10567)
inactive: [1] -0.007 | [6] 0.031 | [2] 0.063 | [5] -0.183 | [3] 0.076 | [7] 0.039 | [8] 0.128

ARHGAP5 (UniProt Q13017)
inactive: [1] 0.186 | [5] -0.052 | [9] 0.176 | [4] 0.115

ARHGEF10 (UniProt O15013)
inactive: [3] -0.111 | [4] 0.039

AP1S2 (UniProt P56377)
inactive: [10] 0.004 | [6] 0.007 | [2] 0.017 | [5] -0.121 | [7] 0.087 | [8] 0.004 | [4] 0.047

AP4S1 (UniProt Q9Y587)
inactive: [10] 0.033 | [6] -0.017 | [2] -0.007 | [5] -0.097 | [3] 0.107 | [7] 0.02 | [8] 0.102 | [9] 0 | [4] -0.008

ANKLE2 (UniProt Q86XL3)
inactive: [6] -0.048 | [2] -0.064 | [3] 0.029 | [7] -0.088

APH1A (UniProt Q96BI3)
inactive: [10] -0.136 | [6] 0.091 | [2] 0.042 | [3] 0.237 | [7] 0.121 | [8] -0.085 | [9] 0.021 | [4] 0.002

ARHGAP25 isoform 4 (UniProt P42331)
inactive: [5] 0.078 | [3] 0.086 | [8] -0.052 | [9] 0.307 | [4] -0.018

ANKRD11 (UniProt Q6UB99)
inactive: [10] -0.209 | [1] 0.07 | [3] -0.18 | [8] -0.758 | [9] -0.009 | [4] 0.044

APOA4 (UniProt P06727)
inactive: [1] 0.142 | [5] 0.029 | [3] 0.23 | [8] -0.272 | [4] 0.126

APOC2 (UniProt P02655)
inactive: [2] -0.043 | [3] 0.08 | [8] -0.089

APC (UniProt P25054)
inactive: [1] -0.004 | [2] -0.449 | [5] 0.054 | [3] -0.018 | [9] 0.017 | [4] -0.104

APOL1 isoform 2 (UniProt O14791)
inactive: [4] -0.097

APOL2 (UniProt J3KQL8)
inactive: [10] -0.088 | [6] 0 | [5] 0.123 | [3] 0.021 | [7] -0.075 | [8] 0.058 | [9] 0.072 | [4] 0.041

ANKRD36 (UniProt A6QL64)
inactive: [10] -0.383 | [5] 0.067 | [3] 0.008 | [8] 0.035

From the supplement of paper PMC10849652
